Some of the results follow.
Key:
Test in all cases: log2 fold change, soluble protein after heating vs DMSO (PISA); higher = thermal stabilisation; K562 cells, 10 uM, 30 min; active = over 0.2 and 3.5 SD of the protein, either way, in both replicates (recomputed)
[1] = compound: NC(=O)Nc1cc(-c2cccc(F)c2)sc1C(=O)N[C@H]1CCCNC1
Summary of the method: (§1)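 K562 cells at 2×10^6 cells/mL were exposed to 10 μM compound for 30 min, then aliquots were heated for 3 min across 48°C-58°C, pooled, and extracted in PBS containing 0.5% NP-40 at 4°C. The supernatant after 21,000xg for 90 min was taken as soluble protein and measured by TMTpro 16plex LC-MS/MS with channel sums equalised. Thermal stability is reported relative to control samples, with values from duplicates. Fold changes are given on a log2 scale.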

By UniProt entry, the sequences of proteins in these tests, tags left out. Where a name states a change or a piece, a line headed by the entry shows the natural chain unless it says otherwise.
UniProt P55199: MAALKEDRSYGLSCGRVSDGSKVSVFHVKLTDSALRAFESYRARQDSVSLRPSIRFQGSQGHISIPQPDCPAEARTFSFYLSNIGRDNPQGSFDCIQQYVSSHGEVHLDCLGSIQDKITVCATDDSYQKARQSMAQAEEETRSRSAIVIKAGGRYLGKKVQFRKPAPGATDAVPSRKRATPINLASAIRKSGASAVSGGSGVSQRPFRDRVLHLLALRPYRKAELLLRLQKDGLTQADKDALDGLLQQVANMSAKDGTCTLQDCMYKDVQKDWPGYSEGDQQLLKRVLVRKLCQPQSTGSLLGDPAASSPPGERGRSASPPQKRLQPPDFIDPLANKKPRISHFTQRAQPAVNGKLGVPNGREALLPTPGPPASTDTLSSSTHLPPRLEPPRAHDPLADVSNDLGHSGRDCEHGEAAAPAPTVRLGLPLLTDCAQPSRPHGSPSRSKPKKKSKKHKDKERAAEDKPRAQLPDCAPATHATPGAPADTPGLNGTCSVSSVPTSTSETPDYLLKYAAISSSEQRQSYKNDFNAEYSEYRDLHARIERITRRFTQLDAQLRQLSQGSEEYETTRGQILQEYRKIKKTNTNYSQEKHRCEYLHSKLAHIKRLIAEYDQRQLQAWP
UniProt Q9BQI3, whole entry, looked up: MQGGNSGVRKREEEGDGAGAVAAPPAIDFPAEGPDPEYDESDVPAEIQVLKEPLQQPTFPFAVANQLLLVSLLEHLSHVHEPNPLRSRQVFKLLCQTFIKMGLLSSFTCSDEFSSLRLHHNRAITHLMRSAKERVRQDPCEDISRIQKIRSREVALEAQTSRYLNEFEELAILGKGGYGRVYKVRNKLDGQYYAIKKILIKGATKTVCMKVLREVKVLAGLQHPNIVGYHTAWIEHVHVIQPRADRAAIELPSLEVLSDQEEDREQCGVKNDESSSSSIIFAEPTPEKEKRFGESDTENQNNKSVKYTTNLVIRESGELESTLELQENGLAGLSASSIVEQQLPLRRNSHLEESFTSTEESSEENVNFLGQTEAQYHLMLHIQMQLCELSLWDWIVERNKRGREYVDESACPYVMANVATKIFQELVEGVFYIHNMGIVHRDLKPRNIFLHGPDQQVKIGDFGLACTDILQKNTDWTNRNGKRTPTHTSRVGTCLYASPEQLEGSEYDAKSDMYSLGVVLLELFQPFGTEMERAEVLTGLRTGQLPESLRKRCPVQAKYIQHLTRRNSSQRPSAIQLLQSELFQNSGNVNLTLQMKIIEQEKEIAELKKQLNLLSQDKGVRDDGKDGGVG
UniProt Q5J8M3, whole entry, looked up: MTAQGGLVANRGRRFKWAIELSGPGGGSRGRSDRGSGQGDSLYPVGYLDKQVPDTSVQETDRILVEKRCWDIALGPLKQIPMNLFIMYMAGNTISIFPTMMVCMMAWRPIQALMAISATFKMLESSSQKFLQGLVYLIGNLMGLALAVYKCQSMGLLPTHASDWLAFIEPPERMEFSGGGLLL

[2] = compound: NC(=O)c1cnc(N[C@@H]2CCCC[C@@H]2N)nc1Nc1cccc(-n2nccn2)c1
Summary of the method: as §1

entinostat = compound: Nc1ccccc1NC(=O)c1ccc(CNC(=O)OCc2cccnc2)cc1 [entinostat]
Summary of the method: as §1

vorinostat = compound: O=C(CCCCCCC(=O)Nc1ccccc1)NO [vorinostat]
Summary of the method: as §1

citarinostat = compound: O=C(CCCCCCNC(=O)c1cnc(N(c2ccccc2)c2ccccc2Cl)nc1)NO [citarinostat]
Summary of the method: as §1

[3] = compound: O=C1NC(=O)C(c2cnc3ccccn23)=C1c1cn2c3c(cc(F)cc13)CN(C(=O)N1CCCCC1)CC2
Summary of the method: as §1

[4] = compound: c1cc(OCCN2CCCCC2)cc(-c2n[nH]c3ccc(-c4nnc[nH]4)cc23)c1
Summary of the method: as §1

[5] = compound: NC1(c2ccc(-c3nc4ccn5c(=O)[nH]nc5c4cc3-c3ccccc3)cc2)CCC1
Summary of the method: as §1

[6] = compound: NCC(=O)Nc1ccc(-n2nc(C(F)(F)F)cc2-c2ccc3c(ccc4ccccc43)c2)cc1
Summary of the method: as §1

silmitasertib = compound: O=C(O)c1ccc2c(c1)nc(Nc1cccc(Cl)c1)c1ccncc12 [silmitasertib]
Summary of the method: as §1

Measured: log2 fold change

ELL (UniProt P55199)
inactive: [1] 0.006 | [2] -0.244 | entinostat -0.006 | vorinostat -0.034 | citarinostat 0.049 | [3] -0.049 | [4] 0.046

EIF2AK1 (UniProt Q9BQI3)
inactive: [1] -0.034 | [2] 0.018 | [5] -0.023 | [6] 0.001 | entinostat 0.129 | vorinostat -0.058 | silmitasertib 0 | [3] 0.133

EEF2 (UniProt P13639)
inactive: [1] 0.045 | [2] 0.005 | [5] 0.015 | [6] 0.037 | entinostat -0.005 | vorinostat -0.001 | citarinostat 0.017 | silmitasertib -0.051 | [3] -0.005 | [4] -0.034

EMC4 (UniProt Q5J8M3)
inactive: [1] -0.042 | [2] 0.019 | [5] -0.056 | [6] 0.009 | entinostat -0.029 | vorinostat -0.069 | citarinostat 0.059 | silmitasertib -0.007 | [3] -0.067 | [4] -0.046
